These are yes or no findings as the source states them, for the method shown. Some results given as binding are weak or reduced against the parent protein; the word gives no strength.

Sequences of proteins named here, by UniProt entry; tags and fusion partners are left off. Residues count along the entry.
UniProt P03101, residues 11-475: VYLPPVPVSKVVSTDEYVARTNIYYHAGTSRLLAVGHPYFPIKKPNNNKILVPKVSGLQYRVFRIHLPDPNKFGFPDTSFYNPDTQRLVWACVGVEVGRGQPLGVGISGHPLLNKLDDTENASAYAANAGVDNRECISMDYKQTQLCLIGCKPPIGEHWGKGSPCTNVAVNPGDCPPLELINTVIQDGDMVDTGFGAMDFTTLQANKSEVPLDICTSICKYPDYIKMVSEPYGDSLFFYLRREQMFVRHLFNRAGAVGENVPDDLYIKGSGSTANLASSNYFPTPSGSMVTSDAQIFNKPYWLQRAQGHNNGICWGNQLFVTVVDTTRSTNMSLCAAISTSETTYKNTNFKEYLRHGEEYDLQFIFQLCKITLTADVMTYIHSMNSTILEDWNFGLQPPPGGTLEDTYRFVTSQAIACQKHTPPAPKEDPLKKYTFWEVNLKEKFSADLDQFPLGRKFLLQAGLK

The assay deals with HPV16 L1五聚体蛋白 (人乳头瘤病毒16型 (HPV16)) (UniProt P03101). Nature of the assay: sandwich ELISA kit: 5A6 capture, 4G12-HRP detection, pentamer 10 ug/ml.

B1: 单克隆抗体5A6 (杂交瘤细胞株5A6, CGMCC 11299) (antibody, V domains shown)
VH: VKLQQSGAELVKPGASVKLSCTASGFNIKDTYMHWVKQRPEQGLEWIGRIDPANGNTEYDPNFQGKATITSDTSSNTAYLHLSSLTSEDTAVYYCAREVGGYYFDYWGQGTTVTVSS
VL: DIQLTQSPSSMSASLGDRITITCQATQDIVKNLNWYQQKPGKPPSFLIYYATELAEGVPSRFSGSGSGSDYSLTISNLESEDFADYYCLQFYEFPLTFGAGTKLEI
As for B1, the binding result is given as “binds”.
